Source: article PMC3630105
No constants are given. Whether binding was seen depends on the method and setting. Binding seen in cells or lysates may run through a third protein. A yes stands for co-enrichment or nearness to the bait. Other partners may have been found. Values belong to the molecule of their own block, whether it stands above or below them.

Protein sequences, listed by entry. Tags and fused reporters are not part of them. Lines headed by an entry give the natural chain unless they say otherwise; changes in a name come on top.
UniProt A1Z9V8: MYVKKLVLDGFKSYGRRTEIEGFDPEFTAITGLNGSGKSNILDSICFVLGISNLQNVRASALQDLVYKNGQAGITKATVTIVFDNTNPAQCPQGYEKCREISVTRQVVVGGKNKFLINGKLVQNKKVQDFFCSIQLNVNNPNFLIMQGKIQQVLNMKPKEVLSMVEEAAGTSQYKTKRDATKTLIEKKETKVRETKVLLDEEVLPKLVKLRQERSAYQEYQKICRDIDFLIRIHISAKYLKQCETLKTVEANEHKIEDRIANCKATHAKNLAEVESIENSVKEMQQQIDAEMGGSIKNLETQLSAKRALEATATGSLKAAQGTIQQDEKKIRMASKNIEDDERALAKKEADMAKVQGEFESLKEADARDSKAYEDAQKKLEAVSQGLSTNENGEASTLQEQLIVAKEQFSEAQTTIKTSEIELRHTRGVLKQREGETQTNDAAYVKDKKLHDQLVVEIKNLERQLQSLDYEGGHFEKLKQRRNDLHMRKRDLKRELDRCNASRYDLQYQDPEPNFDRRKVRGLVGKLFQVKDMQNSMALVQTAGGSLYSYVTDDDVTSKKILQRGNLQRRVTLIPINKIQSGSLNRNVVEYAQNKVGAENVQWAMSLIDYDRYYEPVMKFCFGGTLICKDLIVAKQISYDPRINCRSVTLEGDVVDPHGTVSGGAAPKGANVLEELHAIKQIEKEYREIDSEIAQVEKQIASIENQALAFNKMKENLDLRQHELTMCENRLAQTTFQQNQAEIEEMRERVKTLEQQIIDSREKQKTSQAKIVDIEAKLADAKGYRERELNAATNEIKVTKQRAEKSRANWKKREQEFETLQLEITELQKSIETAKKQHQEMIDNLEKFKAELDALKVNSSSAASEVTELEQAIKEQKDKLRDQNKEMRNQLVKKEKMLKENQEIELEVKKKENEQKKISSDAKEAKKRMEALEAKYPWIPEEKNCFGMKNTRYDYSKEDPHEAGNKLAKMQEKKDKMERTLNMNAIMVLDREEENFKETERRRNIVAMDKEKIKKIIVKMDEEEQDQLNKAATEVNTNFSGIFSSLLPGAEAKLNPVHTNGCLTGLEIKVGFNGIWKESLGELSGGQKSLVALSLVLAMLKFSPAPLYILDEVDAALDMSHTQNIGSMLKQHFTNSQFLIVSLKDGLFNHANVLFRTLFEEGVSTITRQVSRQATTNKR
UniProt Q9VAJ1: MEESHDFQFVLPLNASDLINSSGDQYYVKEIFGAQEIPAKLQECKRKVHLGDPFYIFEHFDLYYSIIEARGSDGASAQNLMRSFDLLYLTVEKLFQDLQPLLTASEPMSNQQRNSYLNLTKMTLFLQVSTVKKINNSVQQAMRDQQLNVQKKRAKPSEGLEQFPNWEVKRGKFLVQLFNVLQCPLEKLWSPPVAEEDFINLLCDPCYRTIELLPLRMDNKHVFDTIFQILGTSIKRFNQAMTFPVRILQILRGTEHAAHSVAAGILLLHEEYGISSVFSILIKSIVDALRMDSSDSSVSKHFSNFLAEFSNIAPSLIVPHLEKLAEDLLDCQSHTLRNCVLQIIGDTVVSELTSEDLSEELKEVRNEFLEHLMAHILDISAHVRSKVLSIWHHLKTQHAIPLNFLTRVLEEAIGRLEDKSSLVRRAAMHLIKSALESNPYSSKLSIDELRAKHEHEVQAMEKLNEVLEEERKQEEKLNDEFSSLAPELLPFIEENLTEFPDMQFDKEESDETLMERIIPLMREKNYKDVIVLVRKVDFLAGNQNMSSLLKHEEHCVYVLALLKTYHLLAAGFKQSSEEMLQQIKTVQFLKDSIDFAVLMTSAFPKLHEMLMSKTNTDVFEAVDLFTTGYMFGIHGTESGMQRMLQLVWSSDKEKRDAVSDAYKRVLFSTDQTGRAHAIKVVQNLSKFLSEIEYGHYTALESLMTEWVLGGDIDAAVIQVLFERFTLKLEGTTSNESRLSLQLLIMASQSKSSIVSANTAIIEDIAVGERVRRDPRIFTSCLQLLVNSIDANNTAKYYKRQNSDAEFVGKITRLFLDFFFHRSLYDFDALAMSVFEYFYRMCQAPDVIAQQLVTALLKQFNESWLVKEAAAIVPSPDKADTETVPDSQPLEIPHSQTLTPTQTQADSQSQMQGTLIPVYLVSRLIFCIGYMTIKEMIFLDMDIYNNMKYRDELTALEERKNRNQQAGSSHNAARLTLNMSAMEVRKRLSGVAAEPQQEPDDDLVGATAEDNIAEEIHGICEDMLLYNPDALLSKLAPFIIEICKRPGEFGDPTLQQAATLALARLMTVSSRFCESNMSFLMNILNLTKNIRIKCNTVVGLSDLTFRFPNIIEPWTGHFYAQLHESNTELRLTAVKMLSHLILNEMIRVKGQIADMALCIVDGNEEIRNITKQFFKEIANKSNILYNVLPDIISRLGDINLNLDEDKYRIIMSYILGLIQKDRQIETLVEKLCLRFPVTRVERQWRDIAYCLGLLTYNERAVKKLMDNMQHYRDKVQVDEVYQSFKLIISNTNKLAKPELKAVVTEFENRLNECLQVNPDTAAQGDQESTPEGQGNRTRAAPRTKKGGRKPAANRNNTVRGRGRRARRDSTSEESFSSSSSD

How the values were obtained:
[1] = target: SMC2 (endogenous) (Drosophila melanogaster (endogenous in embryos and ovaries)) (UniProt A1Z9V8); assay: affinity purification with mass spectrometry; anti-SMC2 immunoprecipitates from wild type embryo extracts; mock control with beads only; SDS-PAGE, MS
[2] = target: SMC2h-EGFP (Drosophila melanogaster) (UniProt A1Z9V8); assay: affinity purification with mass spectrometry; anti-EGFP immunoprecipitates from extracts of embryos or ovaries expressing SMC2h-EGFP; SDS-PAGE, MS
[3] = target: Cap-G^FL-mRFP1 (Drosophila melanogaster); assay: affinity purification with mass spectrometry; anti-mRFP1 immunoprecipitates from extracts of embryos or ovaries expressing Cap-G-mRFP1; SDS-PAGE, gel slices, LTQ Orbitrap; control w^1 ovaries

binding [1]: binds
binding [2]: binds
Molecule: Cap-D2 (endogenous) (from UniProt Q9VAJ1)

binding [1]: binds
binding [3]: binds
binding [2]: binds
B1: Cap-H/Barren (endogenous) (protein, UniProt P91663 1-736)
chain: MTLPRLETPLRRSAVGSYQEGVSRMLTPFNDDEAERREARRRTLLQQHHRSSTLESIEDNETIKNCLELYNGNKVSKDNAWNLMLIDSLANLLDHHHKRMSNFKMAGSSLEASSKVYGLRVDSIYLDAMRISAGLSARTLTDKQINAAEDDDGPQGEQATGEGQDSAQQAAKEAAPKPKRQKKPISTVTKNRETLNSRLDTAPLQDPVFGKLNSTCGASINASNRLMHNILPSFDSELRLRTTYNFWNSEESTEEVQDHTTLNAEMEQWPATSLMSTNLMRKLLPHAERSNLRPLHTGYIITSAPNPKSANEKAAEVVQDEDHDEGLDNADDVCVNKISMAFDINAECEPMPDLDGPPPLVLEVDSNELEELTAEEQMVINNCRRLRKQTEFIEDLRPVDGNSKLEYSYRPMDQISQFWAGPSHWKFKRTRPRSTFSQTNGQVDTQPIRTQRAKKSAHLNANRRAKALDYGNVTENFFQQLDTTIRQRKANFQKKWDPRKLILPTKFELDPDLFFKYESAPSIKLSKRAGEPDSDEGGDLGIDMDADMHHDDDNDQELFNNEHFTDAVPANVSVIAAIAAEQAAEASMMNVSAGEIGLTQMNATCNNTVFEIGTEFEGAPSQVAKVIVPFAKRAKVIDMKNLKKSCNSLIQKQLLNAVPEETIPSHPKKKGEHYSKGFASFQQVYQKLPDLLTTKMSDSLSPSVAFYAVLHLANDLKLRLIPQEDLEDFQIRQVLD
